The supplement of paper PMC3334620
The full ranking holds about 33,000 sequences; the median of “E-score (-0.5 to 0.5)” is about -0.015, and the highest 2% start at about 0.3. This is one part of the list.

Each sequence was assayed against T1, Abf1 (UniProt P14164) (assay: PBM E-score (8-mer binding enrichment) (E-score (-0.5 to 0.5)); higher = stronger / more preferred TF binding). Conditions: protein concentration: 200 nM; construct: GST-full length.
T1 sequence: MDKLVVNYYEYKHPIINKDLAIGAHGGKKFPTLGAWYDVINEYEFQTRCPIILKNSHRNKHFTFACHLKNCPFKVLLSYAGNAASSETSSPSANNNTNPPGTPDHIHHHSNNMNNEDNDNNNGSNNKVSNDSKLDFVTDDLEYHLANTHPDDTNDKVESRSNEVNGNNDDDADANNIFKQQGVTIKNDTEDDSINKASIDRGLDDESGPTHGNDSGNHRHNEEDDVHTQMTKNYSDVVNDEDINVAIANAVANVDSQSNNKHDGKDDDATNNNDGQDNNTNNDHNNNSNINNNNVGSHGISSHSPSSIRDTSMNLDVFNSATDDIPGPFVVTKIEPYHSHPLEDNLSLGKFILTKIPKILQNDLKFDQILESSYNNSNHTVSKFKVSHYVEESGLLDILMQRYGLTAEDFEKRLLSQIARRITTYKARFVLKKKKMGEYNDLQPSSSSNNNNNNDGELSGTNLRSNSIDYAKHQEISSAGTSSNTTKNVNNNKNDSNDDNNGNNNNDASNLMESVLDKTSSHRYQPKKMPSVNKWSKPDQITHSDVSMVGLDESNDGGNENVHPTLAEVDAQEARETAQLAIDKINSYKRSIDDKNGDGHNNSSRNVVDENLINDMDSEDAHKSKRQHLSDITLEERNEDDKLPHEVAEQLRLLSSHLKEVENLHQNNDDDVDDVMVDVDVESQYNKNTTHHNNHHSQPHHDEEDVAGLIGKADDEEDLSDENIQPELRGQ
How it was run: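 For each ungapped eight-base word taken together with its reverse complement, the Universal PBM Analysis Suite assigned an E-score. Binding data came from GST-tagged yeast transcription factors, applied at about 100-200 nM, on universal all-10-mer Agilent arrays made double-stranded by primer extension. Fluorescent anti-GST marked bound protein, and scans were normalised with masliner.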

| Sequence | PBM E-score |
| --- | --- |
| GAAATCCC | -0.101 |
| ATGTTAAG | 0.0617 |
| TACTCATA | 0.0292 |
| CCTAAAAC | -0.16 |
| CTTCCACA | -0.0921 |
| ATCGCCAC | 0.275 |
| AGGATTAC | -0.158 |
| GGCGTCAC | -0.0875 |
| GGGCCCTA | -0.219 |
| AACGAAAC | 0.101 |
| AAACTTTG | 0.0105 |
| GTAACCTA | 0.0292 |
| GCTCCAAC | 0.133 |
| AACATCTC | -0.063 |
| TGAAAGCA | 0.0533 |
| CTGAGCCA | -0.225 |
| ACGATCAG | 0.203 |
| GACGCCGA | 0.0176 |
| GCCGGGAC | -0.338 |
| CCACCAGC | 0.0706 |
| AAGGCCAC | -0.121 |
| AGGAGCGG | -0.329 |
| GGAGGTAC | -0.152 |
| ATGCCACA | 0.0883 |
| CGAGTTCC | 0.137 |

| Sequence | PBM E-score |
| --- | --- |
| TAATCATA | 0.172 |
| GAAACTGC | -0.141 |
| CCCCATTC | -0.203 |
| TGATGACA | 0.376 |
| CGAATTAC | 0.0338 |
| GCCCGCTA | -0.00513 |
| CGCCGTAG | 0.209 |
| CAAAACTC | 0.00092 |
| GGCGAACC | -0.0759 |
| ACTTATGC | -0.0348 |
| GAGATATC | 0.25 |
| TCCCGCGA | 0.117 |
| GCGTCGCA | -0.0267 |
| CACAAATA | 0.179 |
| CGATACAA | 0.0457 |
| AGAGAGCA | -0.0954 |
| ACCAATAC | 0.0318 |
| TTAACAAA | 0.0752 |
| ACAATACA | 0.0265 |
| CGGGTCCA | -0.143 |
| CCGCGCGG | -0.0497 |
| AGGGTGCG | -0.236 |
| CAGAACAA | 0.136 |
| CCTCGAGC | -0.0643 |
| AGCGAACT | -0.0976 |

| Sequence | PBM E-score |
| --- | --- |
| GACATATC | 0.281 |
| AGCCAACG | -0.13 |
| ATAAGGTC | 0.118 |
| AGTACTTA | -0.067 |
| ACGGGATA | 0.145 |
| CCAGGGCA | -0.208 |
| CCCAGGAG | -0.25 |
| CATAGCCG | 0.0262 |
| GTGCTAAA | 0.11 |
| ACCACTAC | -0.228 |
| GCAACTTA | -0.0867 |
| CCCTCGAA | -0.224 |
| ATGCATTC | 0.00907 |
| GCTCCGCA | 0.0345 |
| TCGGAAAA | 0.0956 |
| AATGACCA | 0.256 |
| CGTGCACA | 0.196 |
| AGTTCGAC | -0.0169 |
| ATAGGGCA | -0.119 |
| CCATACCG | -0.262 |
| AACAGCAT | -0.00917 |
| GACCGTCA | 0.144 |
| GCATGACC | 0.0806 |
| AGTTAACA | 0.122 |
| GTAAACAC | 0.00826 |

| Sequence | PBM E-score |
| --- | --- |
| CACTTTCA | 0.069 |
| AGTACCTA | 0.0876 |
| TATGAATA | 0.081 |
| AATACTGC | 0.105 |
| CAGCCGGA | -0.0149 |
| AAGTATAA | 0.192 |
| ACGGCACC | 0.0263 |
| GCCCACAA | -0.158 |
| ACTCCTTA | -0.0759 |
| CATTCCTA | -0.046 |
| TCGAATCA | 0.00024 |
| GTGCCGCA | 0.165 |
| TCATTCCA | 0.169 |
| AGCTCGAA | -0.0104 |
| TCGAGGCA | -0.00215 |
| CAATGGCG | -0.201 |
| AAAAGCGC | -0.152 |
| GAAATGGC | -0.108 |
| ACCTAAGT | 0.156 |
| AACTAACC | 0.161 |
| ATTGTCAA | -0.0577 |
| CGAGAGCC | -0.21 |
| CAGTTACC | -0.0928 |
| GATAAATC | 0.195 |
| ACGGGACT | 0.104 |

| Sequence | PBM E-score |
| --- | --- |
| AGCCTAGA | -0.227 |
| TCCCTCCA | -0.206 |
| ACGCCGCA | 0.00303 |
| CAGCGGTA | -0.177 |
| CATAGAAG | 0.00751 |
| AATTGACA | 0.01 |
| CGTAGGGC | -0.0606 |
| GTCTCATA | 0.0549 |
| TGGAACAA | -0.00558 |
| CTTCGCAC | -0.00026 |
| AGTTACGG | 0.0796 |
| AATGCGCA | 0.0516 |
| ATGTATTG | 0.0248 |
| AATTCCTG | -0.174 |
| CAGACAGC | -0.289 |
| GTGCGTAA | 0.0996 |
| ACAAGAGC | -0.0975 |
| AACAATAC | 0.0411 |
| TCACCACA | 0.115 |
| ATTACAAA | 0.176 |
| CAGGTATC | -0.0743 |
| CATTTTTC | 0.189 |
| AAGTCTTC | 0.0143 |
| AAATACGC | 0.0308 |
| ATTCAGCG | 0.0115 |

| Sequence | PBM E-score |
| --- | --- |
| AGACCCTA | -0.19 |
| CAAGCCAC | -0.0725 |
| ATACGAAA | 0.349 |
| CCGCCCGA | -0.137 |
| AGATGTTC | -0.0873 |
| ACAATTCG | 0.111 |
| GACCCACA | -0.114 |
| AAATCCGC | -0.0551 |
| CGGCACAA | 0.133 |
| GGTTTGTA | 0.00375 |
| ACTAATAC | 0.0887 |
| CCATGTAC | 0.0435 |
| CGGCCTTC | -0.00784 |
| AAATCGAG | 0.0194 |
| ACCAGGGG | -0.326 |
| GCCGTAAC | 0.211 |
| CTGTTAAA | 0.0575 |
| CGCTGCAC | -0.0424 |
| GCTCCGTA | 0.23 |
| AGCTCCCG | -0.167 |
| CATTCAAA | 0.129 |
| ATATATAC | 0.262 |
| GTAGGAAA | 0.181 |
| TATATCCA | 0.121 |
| AACCAGGG | -0.116 |

| Sequence | PBM E-score |
| --- | --- |
| ATGCAACA | -0.0408 |
| CACAGTCG | -0.0286 |
| GTGTCAAC | -0.0112 |
| AGAATTTG | -0.0116 |
| AAAGCTGG | -0.172 |
| AACCCAGC | -0.185 |
| GCCTATAA | -0.143 |
| GCGGACAC | -0.159 |
| CAACCCCG | 0.0234 |
| CGAACTCC | 0.0914 |
| GCCTCAGA | -0.204 |
| AATTGTCT | 0.0233 |
| AGGGTTGG | -0.138 |
| CAATTTTA | 0.178 |
| TACCGATA | 0.0136 |
| TCTTCCCA | -0.315 |
| CGCTAGCG | -0.101 |
| CAGGGGTA | -0.0883 |
| AACCTTGT | -0.153 |
| ACCGTCAT | 0.362 |
| ACCACTAG | -0.105 |
| CCTCGACG | 0.057 |

In another format: entries from further up.
GTGTCAAC
  PBM E-score: -0.0112
AACCCAGC
  PBM E-score: -0.185
CGAACTCC
  PBM E-score: 0.0914
AGGGTTGG
  PBM E-score: -0.138
